The target in assay [1] is EGFP-TACC3 TACC domain, amino acids 639-838 (human) (UniProt Q9Y6A5). Nature of the assay: co-IP; HEK293T cells co-transfected with EGFP-tagged TACC3 constructs and Flag-tagged c-Myc; lysates IP with anti-GFP; IP buffer 150 mM NaCl, 5 mM EDTA, 0.5% NP-40, 50 mM Tris-HCl pH 8.0; immunoblot.
Assay [2] concerns the target c-Myc, endogenous in bladder cancer cells (human (endogenous in TCCSUP and 5637)) (UniProt P01106). Nature of the assay: co-IP; MYC with PCAF and SIRT1 in cells with TACC3 overexpression or depletion, also with SIRT1 overexpression or knockdown; IP buffer 150 mM NaCl, 5 mM EDTA, 0.5% NP-40, 50 mM Tris-HCl pH 8.0.
The target is the same in assay [3]. Nature of the assay: co-IP; endogenous proteins in TCCSUP and 5637 cells; IP with c-Myc antibody, IgG as negative control; IP buffer 150 mM NaCl, 5 mM EDTA, 0.5% NP-40, 50 mM Tris-HCl pH 8.0.
The target of assay [4] is EGFP-TACC3 (Transforming Acidic Coiled-Coil Containing Protein 3), full length, amino acids 1-838 (human) (UniProt Q9Y6A5). Nature of the assay: co-IP; 293T cells expressing EGFP-TACC3, endogenous c-Myc; IP buffer 150 mM NaCl, 5 mM EDTA, 0.5% NP-40, 50 mM Tris-HCl pH 8.0; overnight at 4 °C; immunoblot.
Assay [5] addresses c-Myc, endogenous in bladder cancer cells (human (endogenous in TCCSUP and 5637)), P01106. Nature of the assay: co-IP; MYC with PCAF and SIRT1 in cells with TACC3 overexpression or depletion, also with SIRT1 overexpression or knockdown; IP buffer 150 mM NaCl, 5 mM EDTA, 0.5% NP-40, 50 mM Tris-HCl pH 8.0. Particulars: remark: other sources report otherwise.

Amino acid sequences for entries named in this document (tags omitted).
UniProt P01106: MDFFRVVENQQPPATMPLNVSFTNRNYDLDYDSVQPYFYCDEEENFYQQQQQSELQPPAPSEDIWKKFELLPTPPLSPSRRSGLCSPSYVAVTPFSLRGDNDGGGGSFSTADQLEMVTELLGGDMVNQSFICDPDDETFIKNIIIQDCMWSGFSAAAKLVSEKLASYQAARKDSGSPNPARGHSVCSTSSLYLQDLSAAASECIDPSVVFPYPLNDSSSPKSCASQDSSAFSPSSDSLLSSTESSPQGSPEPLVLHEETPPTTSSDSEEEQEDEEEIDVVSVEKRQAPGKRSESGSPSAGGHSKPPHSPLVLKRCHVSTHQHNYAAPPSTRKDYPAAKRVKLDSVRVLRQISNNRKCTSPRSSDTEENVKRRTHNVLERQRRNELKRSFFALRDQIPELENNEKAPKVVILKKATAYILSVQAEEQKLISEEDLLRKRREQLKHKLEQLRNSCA
UniProt Q92831: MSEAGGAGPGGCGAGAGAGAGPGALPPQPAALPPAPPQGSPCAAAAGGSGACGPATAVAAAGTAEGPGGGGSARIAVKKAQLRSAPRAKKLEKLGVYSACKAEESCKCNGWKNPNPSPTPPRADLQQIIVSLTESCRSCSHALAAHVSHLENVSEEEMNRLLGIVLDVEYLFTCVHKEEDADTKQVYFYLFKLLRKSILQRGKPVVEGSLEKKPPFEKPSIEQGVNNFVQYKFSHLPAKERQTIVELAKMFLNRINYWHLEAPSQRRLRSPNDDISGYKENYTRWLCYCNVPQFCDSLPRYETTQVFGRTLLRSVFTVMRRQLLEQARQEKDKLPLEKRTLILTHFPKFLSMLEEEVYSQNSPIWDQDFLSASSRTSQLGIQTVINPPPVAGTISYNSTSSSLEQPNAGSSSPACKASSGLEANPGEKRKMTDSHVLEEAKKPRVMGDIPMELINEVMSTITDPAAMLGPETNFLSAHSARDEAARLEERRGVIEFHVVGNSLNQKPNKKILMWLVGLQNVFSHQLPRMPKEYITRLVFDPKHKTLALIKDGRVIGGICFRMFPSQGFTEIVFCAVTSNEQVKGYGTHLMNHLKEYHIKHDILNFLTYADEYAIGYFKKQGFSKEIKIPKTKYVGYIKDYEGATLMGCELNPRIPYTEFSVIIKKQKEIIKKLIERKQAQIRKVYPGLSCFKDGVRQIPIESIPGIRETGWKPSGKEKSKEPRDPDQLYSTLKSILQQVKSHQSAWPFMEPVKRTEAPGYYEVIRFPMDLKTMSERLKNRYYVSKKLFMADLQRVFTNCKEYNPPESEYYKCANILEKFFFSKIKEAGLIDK

No constants are given. Whether binding was seen depends on the method and setting. In cells and extracts the contact can be indirect. Some entries that bind do so weakly or less than the wild type.

Regarding “Flag-tagged c-Myc (from UniProt P01106 1-454)”, the binding result in assay [1] is recorded as “binds”.
Consider “PCAF (histone acetyltransferase KAT2B) (from UniProt Q92831 1-832) (enzyme)”, for which the binding result in assay [2] is reported as “binds”.
Take “TACC3, endogenous in bladder cancer cells (from UniProt Q9Y6A5 1-838)”: in assay [3], the binding entry is given as “binds”.
On to “c-Myc, endogenous in 293T cells (from UniProt P01106 1-454)”, for which the binding result in assay [4] is recorded as “binds”.

B1: SIRT1, Q96EB6 1-747 (enzyme)
chain: MADEAALALQPGGSPSAAGADREAASSPAGEPLRKRPRRDGPGLERSPGEPGGAAPEREVPAAARGCPGAAAAALWREAEAEAAAAGGEQEAQATAAAGEGDNGPGLQGPSREPPLADNLYDEDDDDEGEEEEEAAAAAIGYRDNLLFGDEIITNGFHSCESDEEDRASHASSSDWTPRPRIGPYTFVQQHLMIGTDPRTILKDLLPETIPPPELDDMTLWQIVINILSEPPKRKKRKDINTIEDAVKLLQECKKIIVLTGAGVSVSCGIPDFRSRDGIYARLAVDFPDLPDPQAMFDIEYFRKDPRPFFKFAKEIYPGQFQPSLCHKFIALSDKEGKLLRNYTQNIDTLEQVAGIQRIIQCHGSFATASCLICKYKVDCEAVRGDIFNQVVPRCPRCPADEPLAIMKPEIVFFGENLPEQFHRAMKYDKDEVDLLIVIGSSLKVRPVALIPSSIPHEVPQILINREPLPHLHFDVELLGDCDVIINELCHRLGGEYAKLCCNPVKLSEITEKPPRTQKELAYLSELPPTPLHVSEDSSSPERTSPPDSSVIVTLLDQAAKSNDDLDVSESKGCMEEKPQEVQTSRNVESIAEQMENPDLKNVGSSTGEKNERTSVAGTVRKCWPNRVAKEQISRRLDGNQYLFLPPNRYIFHGAEVYSDSEDDVLSSSSCGSNSDSGTCQSPSLEEPMEDESEIEEFYNGLEDEPDVPERAGGAGFGTDGDDQEAINEAISVKQEVTDMNYPSNKS
In the case of B1, in assay [5], the binding entry is “binds”.

These data come from article PMC12006502.
